Reference: paper PMC11480203
These are yes or no findings as the source states them, for the method shown. In cells and extracts the contact can be indirect. Some binding calls cover weakened binding; strength is not graded here. Sequences can lack the tags named with a protein.

Columns and labels:
[1] = target: T1, BirA*-Flag-JUN WT (293T), P05412; test: co-IP; 293T cells transfected with BirA*-Flag JUN alleles and HA-JUN WT; lysed in RIPA buffer 48 h after transfection; Anti-Flag M2 agarose, 4 °C, 3 h; eluted with Flag peptide; immunoblot for HA-JUN WT; settings: remark: other sources report otherwise
T1 chain: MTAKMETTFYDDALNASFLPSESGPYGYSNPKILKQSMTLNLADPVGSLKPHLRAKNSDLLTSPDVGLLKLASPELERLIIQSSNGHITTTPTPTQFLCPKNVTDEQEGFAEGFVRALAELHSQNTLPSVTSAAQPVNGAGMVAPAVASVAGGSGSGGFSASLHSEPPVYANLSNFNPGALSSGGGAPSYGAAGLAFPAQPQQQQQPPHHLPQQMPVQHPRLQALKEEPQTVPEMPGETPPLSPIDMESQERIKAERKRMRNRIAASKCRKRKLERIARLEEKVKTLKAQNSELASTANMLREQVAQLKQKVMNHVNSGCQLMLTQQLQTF

[2] = target: T1, BirA*-Flag-JUN WT (293T), P05412; test: co-IP; 293T cells transiently transfected with BirA* fusion protein, HA-JUN and FOS-V5 (enforced FOS expression); Flag immunoprecipitation, precipitates assayed for HA-JUN and FOS-V5; settings: remark: other sources report otherwise

binding [1]: binds
binding [2]: binds
B1: HA-JUN WT, P05412 1-331 (protein)
chain: MTAKMETTFYDDALNASFLPSESGPYGYSNPKILKQSMTLNLADPVGSLKPHLRAKNSDLLTSPDVGLLKLASPELERLIIQSSNGHITTTPTPTQFLCPKNVTDEQEGFAEGFVRALAELHSQNTLPSVTSAAQPVNGAGMVAPAVASVAGGSGSGGFSASLHSEPPVYANLSNFNPGALSSGGGAPSYGAAGLAFPAQPQQQQQPPHHLPQQMPVQHPRLQALKEEPQTVPEMPGETPPLSPIDMESQERIKAERKRMRNRIAASKCRKRKLERIARLEEKVKTLKAQNSELASTANMLREQVAQLKQKVMNHVNSGCQLMLTQQLQTF
